Experimental data taken from publication PMC12040169 (PLOS Biology, 2025).
This is one part of the list.

system: T1, CTL2-GFP (C. trachomatis L2/434/Bu, GFP-expressing); design: species or system HeLa; Intracellular C. trachomatis growth in HeLa cells, bulk GFP fluorescence relative to DMSO; conditions: bulk GFP, single well; 28.5 h, 10 µM; inhibitor
T1 construct: L2/434/Bu, GFP-expressing

Row | Compound | % of control remaining [%]
1 | COc1ccc(Br)cc1S(=O)(=O)Nc1c(C(=O)O)[nH]c2ccccc12 [CBK049887] | 108.156
2 | CN(CC(=O)NNC(=O)c1cccnc1)S(=O)(=O)c1cc(Cl)ccc1Cl [CBK267388] | 125.724
3 | Cc1cc(NC(=O)C2CCN(C(=O)CNc3ccccc3)CC2)no1 [CBK304297C] | 119.846
4 | O=C(Nc1nnc(-c2ccccc2)o1)c1nc2ccccc2s1 [CBK287595] | 136.622
5 | O=C(NCCc1c[nH]c2ccc(Cl)cc12)c1ccc(Br)cc1Cl [CBK159762] | 55.0814
6 | CC(C)C(=O)NC(C)c1nc(-c2ccncc2)n[nH]1 (stereo not drawn) [CBK104021] | 106.811
7 | Cc1ccc2c(c1)N(CCO)C(C)(C)CC2C (stereo not drawn) [CBK006567] | 107.212
8 | c1ccc(-c2nc3ccccc3nc2N2CCNCC2)cc1 [CBK269574C] | 175.838
9 | COc1cccc(CNc2ccc(-c3nc4ncccc4o3)cc2)c1OC [CBK269716] | 140.199
10 | NC(=O)c1cccc(-c2nccnc2NCCO)c1 [CBK088993] | 182.141
11 | CS(=O)(=O)N1CCN(c2ccc(NC(=O)CSc3nc(-c4ccccc4)cs3)cc2)CC1 [CBK267934] | 132.503
12 | CC(C)(C)SCC(=O)c1ccc2c(c1)CCC(=O)N2 [CBK006168] | 107.64
13 | Nc1ncc(-c2ccsc2)c2cccnc12 [CBK067580] | 149.686
14 | Cc1ccc(NC(=O)CCN2C(=O)c3cccc([N+](=O)[O-])c3C2=O)c(Br)c1 [CBK263172] | 118.285
15 | CCOc1ccc(-c2cc(C(=O)Nc3cccc(C(=O)O)c3)no2)cc1 [CBK299776] | 146.53
16 | CNS(=O)(=O)c1ccc2c3c(cccc13)C(=O)N2 [CBK287275] | 144.13
17 | C=CCNc1nccnc1-c1cccc(O)c1 [CBK088505] | 100
18 | O=C(CSc1ccc(Br)cc1)NCc1ccco1 [CBK269701] | 137.345
19 | Cc1ccc(CNC(=O)CSc2nc(N)n[nH]2)cc1 [CBK267914] | 115.651
20 | CN(C)c1ccc(-n2ncc(-c3ccsc3)n2)cc1 [CBK112845] | 175.604
21 | CCSC1=C(C#N)C(=O)NC(c2ccccc2O)S1 (stereo not drawn) [CBK293971] | 128.995

Row | Compound | % of control remaining [%]
22 | CC1CCCN(Cc2nc3c(c(=O)n(C)c(=O)n3C)n2CC(N)=O)C1 (stereo not drawn) [CBK306064] | 136.761
23 | O=C(COc1ccc(S(=O)(=O)N2CCCCC2)cc1Cl)Nc1ccc2c(c1)OCCO2 [CBK269540] | 130.641
24 | O=C(O)CCC(NC(=O)c1ccc(-c2ccc(F)cc2)s1)C(=O)O (stereo not drawn) [CBK295172] | 143.327
25 | CCCCc1c(O)c2ccccc2n(Cc2ccccc2)c1=O [CBK219416] | 112.657
26 | S=c1[nH]nc2sc3ccccc3n12 [CBK018156] | 128.721
27 | Cn1nccc1C1CCN(Cc2ccc(Oc3cnccn3)cc2)CC1 [CBK306400] | 108.341
28 | O=C(Nc1cnn(C23CC4CC(CC(C4)C2)C3)c1)c1cnn2c(C(F)(F)F)cc(-c3ccco3)nc12 [CBK268538] | 75.5415
29 | CN(CC1(C)COC1)C(=O)Cc1cccc2cccnc12 [CBK281963] | 96.5114
30 | Cc1nn2c(c1-c1ccno1)CCCCC2 [CBK007505] | 140.475
31 | O=C(Cn1ncc2cccn2c1=O)NCc1ccc(F)cc1 [CBK283851] | 127.066
32 | Cc1cc(C)nc(N2CCN(CCC(=O)O)CC2)n1 [CBK287272] | 157.259
33 | CC(=O)NC1(c2ccccc2F)CCN(c2ncc(-c3ccco3)c(-c3ccco3)n2)CC1 [CBK286428] | 154.26
34 | OC(CSc1ncnc2sc3c(c12)CCC3)Cn1cccn1 (stereo not drawn) [CBK304149] | 126.996
35 | Cc1nn(C)cc1CN1CCN(C(=S)NCCc2ccccc2)CC1 [CBK267069] | 110.921
36 | CC(C)c1ccc(S(=O)(=O)NCCC2CCN(Cc3ccccc3)CC2)cc1 [CBK043456] | 92.0896
37 | O=C(Nc1ccc2cccc(O)c2n1)c1cc[nH]c1 [CBK122743] | 96.5544
38 | O=C(c1ccncc1)N1CCCn2nc(-c3cccnc3)cc2C1 [CBK288607] | 113.213
39 | CC(C)(O)c1cc(CC2(NCc3ccco3)COC2)no1 [CBK289255] | 131.531
40 | O=S(=O)(Nc1ccc2nsnc2c1)c1ccc(Br)cc1C(F)(F)F [CBK062233] | 123.031
41 | CC(C)Oc1ccc(C(=O)N2CC(C)C(N3CCOCC3)C2)cn1 (stereo not drawn) [CBK304497] | 110.246
42 | Cn1c(SCC(=O)Nc2ccccc2[N+](=O)[O-])nc2ccccc2c1=O [CBK265096] | 101.575

Among those listed so far, 3 contain a Cl atom.
Row | Compound | % of control remaining [%]
2 | CN(CC(=O)NNC(=O)c1cccnc1)S(=O)(=O)c1cc(Cl)ccc1Cl [CBK267388] | 125.724
5 | O=C(NCCc1c[nH]c2ccc(Cl)cc12)c1ccc(Br)cc1Cl [CBK159762] | 55.0814
23 | O=C(COc1ccc(S(=O)(=O)N2CCCCC2)cc1Cl)Nc1ccc2c(c1)OCCO2 [CBK269540] | 130.641

Some of the entries so far, comma-delimited:
Row,Compound,% of control remaining [%]
3,Cc1cc(NC(=O)C2CCN(C(=O)CNc3ccccc3)CC2)no1 [CBK304297C],119.846
38,O=C(c1ccncc1)N1CCCn2nc(-c3cccnc3)cc2C1 [CBK288607],113.213

(cont.)

Row | Compound | % of control remaining [%]
43 | OC(COc1cccc2c1CCCC2)CN1CCC(O)(c2ccc(Br)cc2)CC1 (stereo not drawn) [CBK003584] | 171.674
44 | Nc1ncc(-c2ccc3c(c2)OCO3)nc1Nc1ccc2[nH]ccc2c1 [CBK063667] | 121.356
45 | O=C1CC(N2CCN(Cc3ccc4c(c3)OCO4)CC2)C(=O)N1c1cc(Cl)cc(Cl)c1 (stereo not drawn) [CBK074554] | 125.744
46 | O=C(O)C/N=C1/CCCc2ccccc2N1 [CBK261809] | 116.322
47 | O=C(Cc1nc(-c2ccncc2)n[nH]1)NC1CCCCC1 [CBK288544] | 96.8653
48 | CCn1ncc(CN(C)C(=O)CCC2CCCCN2C)c1C (stereo not drawn) [CBK307329] | 105.29
49 | Cc1ccccc1NC(=O)COc1ccc(S(=O)(=O)N2CCCC2)cc1Cl [CBK268938] | 130.082
50 | CC(CC(=O)O)CC(=O)N1CCCC1c1nc(-c2ccc(F)cc2)c2ccccn12 (stereo not drawn) [CBK046626] | 140.451
51 | O=C(CN1CCCC1=O)NC1(C(F)(F)F)NC(=O)N(c2ccc(F)cc2)C1=O (stereo not drawn) [CBK268057] | 104.79
52 | CCn1c(-c2ccc3c(c2)OCCO3)cnc1SCC(=O)c1cc(C)[nH]c1C [CBK297880] | 141.878
53 | O=C1CC(SCc2nc3ccccc3[nH]2)C(=O)N1c1ccccc1Cl (stereo not drawn) [CBK266702] | 92.4648
54 | O=C(O)Cn1cc(I)c(=O)[nH]c1=O [CBK262698] | 125.346
55 | Cc1[nH]c(=O)[nH]c(=O)c1CCC(=O)N(C)CC(=O)Nc1cccc(F)c1 [CBK305703] | 124.526
56 | CC(=O)c1ccc(-c2cc(Nc3ccc(O)cc3C)ncn2)s1 [CBK091052] | 97.1899
57 | CC1CN(c2cc(CO)c(F)cn2)CC2(CCOC2)O1 (stereo not drawn) [CBK304772] | 135.752
58 | COc1ccc(C(C)C)cc1-c1cnc2[nH]c(=O)n([C@H](CO)C(C)C)c2n1 [CBK064962] | 107.256
59 | CC(=O)N(C)Cc1cccc(Nc2ncnc3c2cnn3C)c1 [CBK306319] | 151.36
60 | O=C1c2ccccc2C(=O)N1CN(Cc1ccc2c(c1)OCO2)CN1C(=O)c2ccccc2C1=O [CBK265197] | 107.037
61 | COC(=O)c1ccc(NC(=O)N2CCCC2c2nc(-c3ccccc3)c3ccccn23)cc1 (stereo not drawn) [CBK046725] | 161.991
62 | Cc1cc(O)n2nc(CC(=O)NCCCn3ccnc3C(C)C)nc2n1 [CBK306876] | 128.821
63 | CCOC(=O)c1sc(NCCOc2cccc(C)c2)nc1C [CBK265574] | 129.285

Row | Compound | % of control remaining [%]
64 | O=C(NCCCN1CCOCC1)c1cc(Cl)ccc1[N+](=O)[O-] [CBK265470] | 117.219
65 | O=C1CC(C(=O)O)CN(c2cccs2)C1 (stereo not drawn) [CBK021796] | 129.88
66 | O=C1NC/C=C/CC2(CCN(C(=O)c3cccnn3)CC2)C(=O)NCCOc2ccccc21 [CBK292095] | 97.0691
67 | CCOC(=O)C(CO)NC(=O)c1cncc(Br)c1 (stereo not drawn) [CBK263926] | 134.321
68 | COC(=O)CN1C(=O)S/C(=C/c2cc(C)n(-c3ccc(S(N)(=O)=O)cc3)c2C)C1=O [CBK265249] | 100
69 | C[C@@H]1CC(=O)CCC1NC(=O)c1ccccc1 (stereo partly drawn) [CBK017832] | 151.158
70 | Cc1ncccc1COC(=O)N1CCCC(F)C1 (stereo not drawn) [CBK200155] | 147.91
71 | O=S(=O)(Nc1cccc(Br)c1)c1ccc(OC(F)(F)F)cc1 [CBK044369] | 90.1489
72 | CC(=O)c1cccc(NC(=O)Cn2ncc(N3CCCC3)c(Cl)c2=O)c1 [CBK304395] | 120.773
73 | COc1ccc(-c2csc(CC(=O)O)n2)cc1 [CBK159469] | 112.374
74 | CC1(C)CC(NC(=O)C23CCC(C)(c4nc5ccccc5nc42)C3(C)C)CC(C)(C)N1 (stereo not drawn) [CBK266559] | 149.725
75 | O=C(CC1SC(NC2CC3C=CC2C3)=NC1=O)NCc1ccccc1 (stereo not drawn) [CBK049940] | 152.934
76 | CNC(=O)C1(Cc2ccc(-c3ccccc3)cc2)CCN(C(=O)COc2ccccc2)CC1 [CBK285766] | 137.127
77 | Cc1nn(C)c(Cl)c1S(=O)(=O)NCc1cc(C)n(C)n1 [CBK062154] | 162.338
78 | CCCC/C=C/c1cnc2[nH]c(=O)n(CCCOC)c2n1 [CBK064540] | 92.142
79 | O=C(c1ccccc1)c1ccccc1OCCO [CBK000728] | 129.502
80 | Cc1ccc(SCCNS(=O)(=O)c2ccc(C)cc2)cc1 [CBK263564] | 107.836
81 | Cc1cc(NC(=O)CSc2nnc3ccc(-c4ccccc4)nn23)no1 [CBK287679] | 99.6491
